# Measurements reported in article PMC4499803.
# The chains behind the UniProt entries cited, without tags or fusion partners.
# UniProt Q14247: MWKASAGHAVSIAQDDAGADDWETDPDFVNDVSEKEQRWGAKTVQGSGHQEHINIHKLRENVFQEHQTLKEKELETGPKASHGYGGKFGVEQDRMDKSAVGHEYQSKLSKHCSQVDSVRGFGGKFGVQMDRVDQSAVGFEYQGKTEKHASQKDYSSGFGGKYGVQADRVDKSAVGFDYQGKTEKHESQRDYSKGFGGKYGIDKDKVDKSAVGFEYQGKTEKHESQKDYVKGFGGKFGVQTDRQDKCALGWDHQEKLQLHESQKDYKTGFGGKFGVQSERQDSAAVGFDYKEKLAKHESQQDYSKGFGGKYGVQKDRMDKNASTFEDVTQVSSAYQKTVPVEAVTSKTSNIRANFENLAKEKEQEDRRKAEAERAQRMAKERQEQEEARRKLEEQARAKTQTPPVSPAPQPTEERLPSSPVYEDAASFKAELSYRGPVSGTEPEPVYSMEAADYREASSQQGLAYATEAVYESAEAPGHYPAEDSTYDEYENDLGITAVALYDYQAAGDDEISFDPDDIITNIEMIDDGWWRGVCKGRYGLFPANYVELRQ
# No constants are given. Whether binding was seen depends on the method and setting. In cells and extracts the contact can be indirect. Some results given as binding are weak or reduced against the parent protein; the word gives no strength. Tags and fused reporters may be left off the sequences shown.
# B1: Myc-tagged Fe65, full length (protein, UniProt O00213 1-710)
# chain: MSVPSSLSQSAINANSHGGPALSLPLPLHAAHNQLLNAKLQATAVGPKDLRSAMGEGGGPEPGPANAKWLKEGQNQLRRAATAHRDQNRNVTLTLAEEASQEPEMAPLGPKGLIHLYSELELSAHNAANRGLRGPGLIISTQEQGPDEGEEKAAGEAEEEEEDDDDEEEEEDLSSPPGLPEPLESVEAPPRPQALTDGPREHSKSASLLFGMRNSAASDEDSSWATLSQGSPSYGSPEDTDSFWNPNAFETDSDLPAGWMRVQDTSGTYYWHIPTGTTQWEPPGRASPSQGSSPQEESQLTWTGFAHGEGFEDGEFWKDEPSDEAPMELGLKEPEEGTLTFPAQSLSPEPLPQEEEKLPPRNTNPGIKCFAVRSLGWVEMTEEELAPGRSSVAVNNCIRQLSYHKNNLHDPMSGGWGEGKDLLLQLEDETLKLVEPQSQALLHAQPIISIRVWGVGRDSGRERDFAYVARDKLTQMLKCHVFRCEAPAKNIATSLHEICSKIMAERRNARCLVNGLSLDHSKLVDVPFQVEFPAPKNELVQKFQVYYLGNVPVAKPVGVDVINGALESVLSSSSREQWTPSHVSVAPATLTILHQQTEAVLGECRVRFLSFLAVGRDVHTFAFIMAAGPASFCCHMFWCEPNAASLSEAVQAACMLRYQKCLDARSQASTSCLPAPPAESVARRVGWTVRRGVQSLWGSLKPKRLGAHTP
# Target: Flag-tagged cortactin (UniProt Q14247)
# Assay: co-IP; 293T cells co-transfected with Flag-cortactin and Myc-Fe65 or deletion constructs; cellular extracts (20 mM Tris-HCl pH 7.5, 150 mM NaCl, 1 mM EDTA, 1% NP-40) incubated with anti-Flag beads overnight at 4 °C; immunoblot
binder,measurement,value
B1,binding,binds
